This data set deals with T1, PsAGL9-GFP (Paeonia suffruticosa) (UniProt V9I0Q3).
T1 sequence (looked up): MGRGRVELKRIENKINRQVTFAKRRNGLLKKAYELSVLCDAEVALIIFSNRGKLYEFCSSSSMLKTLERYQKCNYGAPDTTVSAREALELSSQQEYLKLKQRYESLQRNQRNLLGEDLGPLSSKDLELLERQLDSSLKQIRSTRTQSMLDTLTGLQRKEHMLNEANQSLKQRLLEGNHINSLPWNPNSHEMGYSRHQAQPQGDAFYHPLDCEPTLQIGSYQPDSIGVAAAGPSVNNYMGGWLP
Put plainly: EMSA. The settings on record: Chemiluminescent EMSA Kit (Beyotime), pH and temperature not stated, protein in a lysate after overexpression, residues 1-243, protein details: GFP, label: biotin. (In EMSA bound probe runs differently from free probe, usually more slowly.)

For at least one entry, the source does not settle the construct or the ends of the probe. Where cells or extracts were used, other partners may take part. The comparison behind a weaker result is the experiment's own reference, which may not be listed here. Where a protein sequence is shown, tags need not be part of it.

Consider “TTTGGCCAATTTTGGTTAAA (double strand) [PsCYCD CArG probe (Methods)]”, for which the binding result by setting is: (increasing protein, without PsRGL1) “binds”; (with HA-PsRGL1 (inhibits DNA binding)) “binds more weakly”.

Source of the values: publication PMC11997425.
